Reference: PubChem BioAssay AID504784 (Drosophila RNAi Screening Center, 2011)

Assay: 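Genome-wide knock-down for genes giving too much or too little stored lipid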 (primary screen)
Cell system: Drosophila Kc167 embryonic cells
Reagent: long dsRNA against Drosophila genes, about 250 ng dsRNA per well
Timing: 4 days
Conditions: cells fed 400 µM oleic acid bound to BSA
Measured: 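Cells imaged and segmented; ratio of lipid droplet area to nuclear area, log-transformed, then normalised as a B-score over the screen; higher means more stored lipid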
Direction: droplet/nuclear area B-score: higher = more stored lipid (overstorage)
In all, the deposit lists about 17,000 reagents; below is an unselected part of those with a known target gene and a result. 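Each column is one replicate's B-score; the combined score over replicates was not deposited, so single values may mislead.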 The numbers tell different reagents against one gene apart. A plus sign joins genes that one reagent is predicted to hit. Reagent sequences are not shown.

pcx #1 gave droplet/nuclear area B-score, replicate 1 = -2.44; droplet/nuclear area B-score, replicate 2 = -2.73.
pcx #2 showed droplet/nuclear area B-score, replicate 1 = -2.78; droplet/nuclear area B-score, replicate 2 = 0.773.
Knock-down of pcx #3 came out at: droplet/nuclear area B-score, replicate 1 = 0.189; droplet/nuclear area B-score, replicate 2 = -2.15.
pcx #4 gave droplet/nuclear area B-score, replicate 1 = -0.672; droplet/nuclear area B-score, replicate 2 = 0.658.
Against pcx #5, the values are droplet/nuclear area B-score, replicate 1 = 1.11; droplet/nuclear area B-score, replicate 2 = -0.14.
Knock-down of pcx #6 came out at: droplet/nuclear area B-score, replicate 1 = -0.562; droplet/nuclear area B-score, replicate 2 = -0.00339.
For mAChR-B, the entry reads droplet/nuclear area B-score, replicate 1 = 2.88; droplet/nuclear area B-score, replicate 2 = 3.06.
Depletion of CG11134 gave: droplet/nuclear area B-score, replicate 1 = -0.653; droplet/nuclear area B-score, replicate 2 = -0.518.
Silencing of CG11378 resulted in: droplet/nuclear area B-score, replicate 1 = 0.42; droplet/nuclear area B-score, replicate 2 = 1.44.
Knock-down of CG8401 resulted in: droplet/nuclear area B-score, replicate 1 = 2.62; droplet/nuclear area B-score, replicate 2 = -0.394.
After knock-down of CG4363 the results were droplet/nuclear area B-score, replicate 1 = 0.0853; droplet/nuclear area B-score, replicate 2 = -0.181.
Against Arfip, the entry reads droplet/nuclear area B-score, replicate 1 = -1.75; droplet/nuclear area B-score, replicate 2 = 2.68.
Cp110 #1 gave droplet/nuclear area B-score, replicate 1 = -0.563; droplet/nuclear area B-score, replicate 2 = -0.888.
After knock-down of Cp110 #2 the results were droplet/nuclear area B-score, replicate 1 = 1.17; droplet/nuclear area B-score, replicate 2 = 0.854.
Silencing of CG12209 came out at: droplet/nuclear area B-score, replicate 1 = -0.736; droplet/nuclear area B-score, replicate 2 = 0.0506.
CG30259 #1 gave droplet/nuclear area B-score, replicate 1 = -0.298; droplet/nuclear area B-score, replicate 2 = -0.0453.
Silencing of CG30259 #2 gave: droplet/nuclear area B-score, replicate 1 = -0.507; droplet/nuclear area B-score, replicate 2 = 0.599.
Against schlank #1 the deposit lists droplet/nuclear area B-score, replicate 1 = -1.09; droplet/nuclear area B-score, replicate 2 = -0.938.
After knock-down of schlank #2, the record shows droplet/nuclear area B-score, replicate 1 = 0.672; droplet/nuclear area B-score, replicate 2 = 0.0659.
CG33299 showed droplet/nuclear area B-score, replicate 1 = 0.576; droplet/nuclear area B-score, replicate 2 = 2.

Records above whose gene name begins with S or s:
schlank #1 → droplet/nuclear area B-score, replicate 1 = -1.09; droplet/nuclear area B-score, replicate 2 = -0.938
schlank #2 → droplet/nuclear area B-score, replicate 1 = 0.672; droplet/nuclear area B-score, replicate 2 = 0.0659

Further entries:
After knock-down of CycK, the record shows droplet/nuclear area B-score, replicate 1 = 0.241; droplet/nuclear area B-score, replicate 2 = 3.02.
Depletion of kraken resulted in: droplet/nuclear area B-score, replicate 1 = 0.266; droplet/nuclear area B-score, replicate 2 = -0.951.
After knock-down of CG4702 the results were droplet/nuclear area B-score, replicate 1 = 0.00355; droplet/nuclear area B-score, replicate 2 = 1.55.
After knock-down of nxf4, the screen gave droplet/nuclear area B-score, replicate 1 = 2.94; droplet/nuclear area B-score, replicate 2 = 0.0682.
Silencing of GlcAT-S resulted in: droplet/nuclear area B-score, replicate 1 = -1.15; droplet/nuclear area B-score, replicate 2 = -0.712.
tio showed droplet/nuclear area B-score, replicate 1 = -0.169; droplet/nuclear area B-score, replicate 2 = -0.0786.
Depletion of lva gave: droplet/nuclear area B-score, replicate 1 = -0.0131.
CG42353 + CG42354 scored droplet/nuclear area B-score, replicate 1 = -1.07; droplet/nuclear area B-score, replicate 2 = 0.0741.
With knock-down of CG42741 #1, the screen gave droplet/nuclear area B-score, replicate 1 = -2.26; droplet/nuclear area B-score, replicate 2 = -0.167.
Depletion of CG42741 #2 came out at: droplet/nuclear area B-score, replicate 1 = 3.09; droplet/nuclear area B-score, replicate 2 = -1.33.
After knock-down of CG10587 the results were droplet/nuclear area B-score, replicate 1 = -1.76; droplet/nuclear area B-score, replicate 2 = -0.0498.
For Task6 the deposit lists droplet/nuclear area B-score, replicate 1 = 0.339; droplet/nuclear area B-score, replicate 2 = -0.0349.
After knock-down of CG12865 (retired record), the record shows droplet/nuclear area B-score, replicate 1 = 0.436; droplet/nuclear area B-score, replicate 2 = 0.776.
ver showed droplet/nuclear area B-score, replicate 1 = -0.752; droplet/nuclear area B-score, replicate 2 = -1.4.
Depletion of CG31974 resulted in: droplet/nuclear area B-score, replicate 1 = 2.04; droplet/nuclear area B-score, replicate 2 = -1.03.
Against CG7568, the values are droplet/nuclear area B-score, replicate 1 = -0.12; droplet/nuclear area B-score, replicate 2 = 0.836.
veg (retired record) scored droplet/nuclear area B-score, replicate 1 = -0.976; droplet/nuclear area B-score, replicate 2 = -1.01.
Against bnk the deposit lists droplet/nuclear area B-score, replicate 1 = 0.173; droplet/nuclear area B-score, replicate 2 = -0.0344.
CG32453 scored droplet/nuclear area B-score, replicate 1 = 0.133; droplet/nuclear area B-score, replicate 2 = 0.392.
Against Hpf1, the values are droplet/nuclear area B-score, replicate 1 = 0.201; droplet/nuclear area B-score, replicate 2 = -0.309.
With knock-down of Droj2, the record shows droplet/nuclear area B-score, replicate 1 = -0.653; droplet/nuclear area B-score, replicate 2 = 11.6.
With knock-down of vanin-like, the record shows droplet/nuclear area B-score, replicate 1 = -0.355; droplet/nuclear area B-score, replicate 2 = -0.0457.
For Pdhb, the entry reads droplet/nuclear area B-score, replicate 1 = 1.82.
Against CG11808, the values are droplet/nuclear area B-score, replicate 1 = 7; droplet/nuclear area B-score, replicate 2 = -0.43.
Against sowi the deposit lists droplet/nuclear area B-score, replicate 1 = 0.412; droplet/nuclear area B-score, replicate 2 = 0.435.
With knock-down of CG7560, the screen gave droplet/nuclear area B-score, replicate 1 = -0.298; droplet/nuclear area B-score, replicate 2 = -1.76.
Knock-down of Vha36-3 gave: droplet/nuclear area B-score, replicate 1 = -0.0175; droplet/nuclear area B-score, replicate 2 = -0.246.
Silencing of CG11381 resulted in: droplet/nuclear area B-score, replicate 1 = -1.01; droplet/nuclear area B-score, replicate 2 = 0.827.
Against mRpL37, the entry reads droplet/nuclear area B-score, replicate 1 = 1.98; droplet/nuclear area B-score, replicate 2 = 3.61.
Against CG32576, the entry reads droplet/nuclear area B-score, replicate 1 = 0.0547; droplet/nuclear area B-score, replicate 2 = 0.356.
With knock-down of CG32374, the screen gave droplet/nuclear area B-score, replicate 1 = 0.00516; droplet/nuclear area B-score, replicate 2 = 0.296.
